In all, about 31,000 sequences went through this assay and about 1,400 (4.5%) were called active.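 Rule for the calls: active = median seed-adjusted z-score above 1 or below -1; inactive = the rest.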 The list shows a part of the results.
assay: Novel Modifiers of Survival Motor Neuron (SMN) Protein: Gene Identification via Genome-wide siRNA Screen; details: HEK293T SMN2-luciferase reporter, siRNA knockdown, 72 h; actives lie on both sides;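 note: luminescence tracks full-length SMN protein made from the SMN2 reporter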
Summary of the method: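 Steps: spot 1 pmol siRNA, add Lipofectamine RNAiMax in serum-free DMEM, seed HEK293T SMN2–luciferase reporter cells; incubate 72 h at 37 °C; add ONE-Glo; normalize luminescence to control siRNA, log10, MAD. Candidates: |MAD| > 1.0.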

Row | Sequence | median seed-adjusted z-score
1 | GGUCAAGAAGCAAUGCCCATT against SPRR4 | inactive: 0.211
2 | GACCCAUGAUCCUAACAAATT against PLAGL2 | inactive: 0.0744
3 | CAACAGUUCUGGGUGAAUATT against CYP24A1 | inactive: 0.136
4 | GCCUUCGCUUUGAACCCAATT against ART5 | inactive: -0.354
5 | GGAACAUGCUUAAGGUUGUTT against TDO2 | inactive: -0.141
6 | GCGUAUUAAUAAUCACGAATT against MDN1 | inactive: 0.187
7 | CGAAGAAGCUAGACUCAGATT against ZNF346 | inactive: 0.00564
8 | CCAUGAUCCUGUGGAUAAATT against HNRNPA2B1 | active: 1.33
9 | GCACUGACUGAAUAAAGCUTT against GPBAR1 | inactive: -0.00293
10 | CCUAUGCAGUAAUCUAUUUTT against CDC14A | inactive: 0.117
11 | ACAAGAUGUAUCACCUAUATT against ZNF226 | inactive: 0.437
12 | GCCGAGGAUUGGUUCUUCATT against KRT17 | inactive: -0.0871
13 | GCUGAGAACUAAGAGAUGATT against PDLIM4 | inactive: -0.637
14 | GAUCAAGUCCAAUAUCGAUTT against RALY | inactive: 0
15 | AGAAGAUUGAUUUUUCUGATT against S100A7 | inactive: -0.253
16 | GGGUCAGAGUGGGAGCAUUTT against VWA2 | inactive: 0.584
17 | CACUAUUGCAUGUAUCGAATT against ARHGAP10 | inactive: -0.458
18 | GGACAACGAUAACCGAUCATT against CA1 | inactive: 0.262
19 | CACUUAUCCCUUAAUCUUUTT against PIGB | inactive: 0.199
20 | ACAAUAUCAAGGAACAGGATT against GZMH | inactive: 0.946
21 | GGAAGUUCCGUUUGACGUATT against LRPPRC | inactive: -0.373
22 | CCGUAAUCGACAAAACUUUTT against SDHA | inactive: -0.103

A second format for part of the listing above:
Row	Sequence	median seed-adjusted z-score
7	CGAAGAAGCUAGACUCAGATT against ZNF346	inactive: 0.00564
16	GGGUCAGAGUGGGAGCAUUTT against VWA2	inactive: 0.584

Following part.

Row | Sequence | median seed-adjusted z-score
23 | GAAUUACAGUGACAGUUCATT against AP3M1 | inactive: 0
24 | CAGAUAGACAAGAUAUUCATT against ARHGEF7 | inactive: 0.185
25 | AAAUUUCACCGGCACCAAATT against TBR1 | inactive: -0.388
26 | GGGACAAGAAAACUAGUUATT against CARD6 | inactive: 0
27 | GGUUCAAUGUUGGAUAUCATT against STK39 | inactive: 0.232
28 | AGAUAUUCUUGAUACUGGATT against NTS | inactive: 0.518
29 | CCAAAGUGGGUGUCAACGATT against BGN | inactive: 0.376
30 | AGGUCAAAGCCUUCCAUUATT against HMHA1 | inactive: -0.285
31 | ACAUGAUUGGGAUCCACGATT against EMID2 | inactive: 0.0465
32 | CAGCCGAACGAGUACCUGATT against CPNE7 | inactive: 0.262
33 | ACUGACAUUUUUCAACUCATT against ALDH1L1 | inactive: 0.0289
34 | GAAAUAUACUUCAGAUUCATT against SP2 | inactive: -0.617
35 | CCCUGUUCCUGUUAGAUGATT against STK11IP | inactive: 0.0745
36 | GGAUAAGAGGCAUGAGGAATT against PPP1R14C | inactive: -0.316
37 | CGUCAGCGGUUUAGCUGGATT against SLC25A10 | inactive: -0.571
38 | CGAGAACCAUGGAGUUGAATT against PMVK | inactive: 0.269
39 | GGUUAUACCCUCAACUACATT against PARP2 | inactive: -0.366
40 | CGGAGUAGCUGAGAUCUUATT against COL15A1 | inactive: 0.161
41 | CACUGUAGUUUCUCUAUUUTT against SLC2A3 | inactive: -0.277
42 | GCAACGGGUUUGGAGUCAATT against KRT75 | inactive: 0.0773
43 | GCACGUAACAGCUAAGGAATT against EIF2B5 | inactive: -0.432
44 | GGAUGAUAAAUGACACCUATT against ST6GALNAC3 | inactive: -0.205

Row | Sequence | median seed-adjusted z-score
45 | GAGAUGUACUUGAACGUAATT against PIK3C3 | inactive: 0
46 | GCCUAUAGGAUUGAACCAATT against DDHD2 | inactive: 0.447
47 | GGCAAAGUUGUAAAGGUUATT against ZCRB1 | inactive: 0.265
48 | AGCUAAAGAUCAUCAAGAATT against LONP1 | inactive: -0.291
49 | GGCUCAAAAACUAAGUGAATT against WDHD1 | inactive: -0.0501
50 | GACAAGACGUGGUCAAGAATT against BCL2L13 | inactive: 0.311
51 | CCCACAGAGUAGCUACUGATT against CD2 | inactive: 0.00791
52 | AAAAGAGACUGAUCAUCCATT against NR2F6 | inactive: -0.681
53 | GCAUAUGGAUUAAUCUCUUTT against CCKAR | inactive: 0.376
54 | CCAUCCACAUGUACAUCAATT against CLPP | inactive: -0.118
55 | CAUCCUCGUGCUUACUUCATT against POLR3K | inactive: 0.504
56 | GAAAUGUACCCUCCAGAAATT against CCNB1 | inactive: 0.163
57 | GGAAUACCUUUAGUCUUCATT against UNC5D | inactive: -0.132
58 | GCUGAUCGGAUGUUGGAUATT against DDX3X | inactive: 0.0136
59 | CAACAAUGCCCUCUACUUUTT against GPR83 | inactive: 0.105
60 | GGCCUUCGUGGAUCAUUCATT against ZNF699 | inactive: -0.428
61 | GAGACAUACCGCUACCUGATT against KCNJ9 | inactive: -0.0832
62 | GGGUAAUUCAUUAACUCCUTT against EMX1 | inactive: -0.689
63 | UGGGAAAUGUGACAGAGUUTT against CYP27B1 | inactive: -0.149
64 | GAAUCCACCUGAGACCUGATT against GABARAPL1 | inactive: 0.402
65 | GAUAGACUGGUAAUACGUATT against JRKL | inactive: -0.227
66 | GGUCAGAACUCCUCAGAUATT against SLC22A2 | inactive: -0.0161

Part of the list above in another layout.
Row	Sequence	median seed-adjusted z-score
45	GAGAUGUACUUGAACGUAATT against PIK3C3	inactive: 0
60	GGCCUUCGUGGAUCAUUCATT against ZNF699	inactive: -0.428
61	GAGACAUACCGCUACCUGATT against KCNJ9	inactive: -0.0832
63	UGGGAAAUGUGACAGAGUUTT against CYP27B1	inactive: -0.149
65	GAUAGACUGGUAAUACGUATT against JRKL	inactive: -0.227

(cont.)

Row | Sequence | median seed-adjusted z-score
67 | ACCCAUCUGUCGCUCUUCATT against TRAF1 | inactive: 0.518
68 | CAAAAAGUCGUGCAACAAATT against ZIC1 | inactive: 0.162
69 | GGAACUGCAUCUCUUCUUATT against AMPD2 | inactive: 0.214
70 | GGAUGGUCUAGUAAGGAUATT against DIMT1L | inactive: 0.0156
71 | CAAUGGAAUCUACAAAGGATT against UAP1 | inactive: 0.0411
72 | GGAAUGGAAUGAUCGGUGATT against GRIN2A | inactive: 0.025
73 | CGAGAACAAGCAGCACAAATT against CABC1 | inactive: -0.197
74 | CACCAUUUAUAUCGACGAATT against TEKT1 | inactive: 0.222
75 | GCAAAGCUCUAGUCUCAUUTT against ZNF154 | inactive: 0
76 | GGAAGUUUUGUUUACGGUATT against DYNC1LI1 | inactive: -0.683
77 | GCAUAGCUAUGCAGACUCUTT against GTF2H2 | inactive: -0.00624
78 | GCAGUACUUCUGAUACCCATT against IRF3 | inactive: 0.0117
79 | AGAUCCACAUGUACGAACATT against GLI2 | inactive: -0.796
80 | CCACUUUACCCACUACCCATT against ISX | active: 1.99
81 | GGAUCACACGGUCAAGAGATT against ZNF696 | inactive: 0.17
82 | CGUUGACUCUGAACAUGAATT against SSRP1 | inactive: -0.31
83 | CGGUUUCCCUCCAAACUCATT against PRKACG | inactive: 0
84 | GGCUGGAAUCGAUGGAGAATT against CLIC5 | inactive: 0
85 | GAUUAAGUCUGGAAUGAAUTT against PKM2 | inactive: -0.0312
86 | GGCAAUCUCUCCAAUCUUATT against SLC10A4 | inactive: 0.069
87 | GCUUUGCUCCCAUCAAUGATT against UHRF1 | inactive: 0.231
88 | CAGUAGAUUGUAUAGCUUUTT against POLK | inactive: -0.102

Row | Sequence | median seed-adjusted z-score
89 | ACCUGGUUCAGUUACCUGATT against CANT1 | inactive: 0
90 | GAUGAUUCAGGUAAAAUAATT against CETN3 | inactive: -0.0815
91 | CGCACGCUCUUCAAAUUCUTT against ADRA2A | inactive: -0.65
92 | GGAUGACCACAAAAUCCAATT against DDX28 | inactive: -0.305
93 | CCAAUGAGUUUGUCAAUUATT against SLITRK5 | inactive: 0.165
94 | CCAUUAAUGAAUUAGUCUATT against TXN | inactive: -0.195
95 | GGGAAUAGCUUAUCUUGUUTT against RFC4 | inactive: -0.386
96 | CAGCGGAAGGAGGCAAUUATT against ULK3 | inactive: -0.73
97 | AUUUUGAACCUGAUGAAAATT against LTB | inactive: 0.646
98 | GCCGAAACCUAUUAGACGATT against ADAMTS3 | inactive: 0
99 | GAAUCAACUUUGCCGUGUUTT against SHMT2 | inactive: -0.0453
100 | GAAAUUGGAAUGUAGUAAATT against TRIP11 | inactive: 0.333
101 | GGAACUGAAGGGAUAAUAATT against CCT8L2 | inactive: -0.39
102 | GGAAGAUCUAUGAGAUCUATT against UNC5A | inactive: 0.517
103 | GCAUCCACCAAGCCUAUCATT against PROM2 | inactive: 0.188
104 | GGAGGACCCUUCAGCUAAATT against DNAI2 | inactive: 0.12
105 | GCAAUUCAGUGCUUGGAGATT against SGTB | inactive: -0.0165
106 | GAGCAUUCCUAGAUAACAATT against TAF5L | inactive: 0.409
107 | CGAAAGUCCUCACCAACAATT against TSHZ1 | inactive: 0.526

Reference: PubChem BioAssay AID1347426 (Functional Genomics Laboratory (NCATS/FGL), 2020)
